## Library screening results

A: 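Whole-cell assay for inhibitors of Mycobacterium tuberculosis growth, labelled Cornell in the record; the read-out is not stated. The concentration is filed as 10 mM, unlikely as a test dose, so the dose is not known. Higher means stronger inhibition (inferred from two other growth screens of the library). About 53,000 compounds were tested under these conditions; 1.7% (about 900) showed 50% or more at least once.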
B: 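Assay on Mycobacterium tuberculosis, filed only as a heat shock assay from Cornell; the read-out is not stated. The concentration is filed as 10 mM, unlikely as a test dose, so the dose is not known. Higher reads as stronger inhibition (inferred: compounds with an IC50 in retests scored well above the rest). Size under these conditions: about 69,000 compounds, about 930 of them at 50% or above in at least one test.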

Results are given as percent effect.
How 0% and 100% were set is not recorded. Most values in the screen are low, and negative values occur.
This is an unselected part of the compounds tested.
A dash means the value is not listed here; it may have been measured.

For CN1CCN(C(C)(C)CNC(=O)C2CCCN2S(C)(=O)=O)CC1 (stereo not drawn) the result was A: 6.087%; B: 1.384%. For CCN(C)C[C@@H]1CN(S(=O)(=O)c2ccc(OC)cc2)C[C@@H]1CO the result was B: -8.353%. Result for COC(=O)C1(C)CCN(C(=O)NCCc2c(C)[nH]c3ccccc23)C1 (stereo not drawn) was B: 10.45%. O=C(c1cccs1)N1CCC(O)(CN2CCc3ccccc3C2)C1 (stereo not drawn) read A: 4.193%; B: 16.53%. Result for O=C(NCCCn1cccn1)c1nnc2ccccc2n1 was A: 8.494%; B: 1.735%.

With CC(O)CN1CCN(C(=O)CN(C)c2cnccn2)CC1 (stereo not drawn) the screen gave B: -1.455%. For CC(=O)NCCc1ncnn1-c1ccc(F)c(Cl)c1 the result was A: -26.78%; B: -3.453%. Brc1cccc(C2(CNCc3cc[nH]c3)CCOCC2)c1 read A: -13.91%; B: -13.13%. CCc1nnsc1C(=O)NCc1c(C)nn(CCOC)c1C gave A: 15.8%; B: -33.5%. For O=C(c1cccc(-n2cnnc2)c1)N1C[C@@H](O)[C@H](N2CCOCC2)C1 the result was A: 40.33%; B: 14.49%.

For N#CCC(=O)NCc1nnc2n1CCN(Cc1nccs1)C2 the result was A: 20.16%; B: 3.55%. For CC(C)C(=O)Nc1cc(C(C)(C)C)nn1-c1ccccn1 the result was B: 4.241%. CCc1ncc2c(n1)CN(C(=O)CNC(=O)c1ccccc1)C2 gave A: -16.06%; B: -16.07%. For O=c1[nH][nH]cc1-c1ccnc(NCCc2cccnc2)n1 the result was A: -20.62%; B: -12.67%. For CN1CCN(C(=O)CCn2c(C(F)(F)F)cc3cccnc32)CC1 the result was A: -45.41%; B: -14.09%.

With O=C(CCCn1ccnc1)NC1CCCN(c2ccccc2Cl)C1 (stereo not drawn) the screen gave A: -10.35%; B: -16.08%. CC(C)c1nc(CN(C)C(=O)C2CC(=O)N(Cc3ccncc3)C2)cs1 (stereo not drawn) gave B: -25.19%. Cc1ccc(CN(Cc2ccccn2)C(=O)CCC2CCCN(C)C2)s1 (stereo not drawn) read A: -4.555%; B: -16.24%. Result for CCC[C@H]1CN(S(C)(=O)=O)C[C@@H]1NC(=O)c1ccc(COC)cc1 was A: 5.703%; B: -14.9%. CCCc1noc(CCC(=O)N2CCCC2Cn2cc(C)cn2)n1 (stereo not drawn) gave B: -25.88%.

With Cc1nc2[nH]cnc(NCCCN3CCOCC3)c-2n1 the screen gave A: 20.07%; B: -13.88%. NC(=O)CN1CCCN(C(=O)c2ccn(-c3ccccc3)n2)CC1 gave A: 12.89%; B: 1.589%. Result for [H][C@@]12C[C@@H](C(=O)NCC3CC3)N(C)[C@]1([H])CN(Cc1cccnc1OC)C2 was A: 15.29%; B: -3.91%. Result for COC(=O)[C@H](C)NC(=O)c1nc(C2CC2)n(-c2ccccc2Cl)n1 was A: 10.31%; B: -15.36%. Cc1cc(C(=O)N2CCC(c3nccn3Cc3ccncc3)CC2)no1 gave A: 10.38%; B: 6.642%.

[H][C@]12CCC[C@@]1(COCC1CCOCC1)CN(Cc1nccs1)C2 gave A: 21.36%; B: -5.86%. Cc1occc1C(=O)N1CC(C(=O)N2CCOCC2)C2(CCOCC2)C1 (stereo not drawn) gave A: 11.07%; B: 0.9754%. Result for CN1CCN(Cc2cccnc2)C(=O)C12CCN(S(C)(=O)=O)CC2 was A: 8.709%; B: -9.348%. Result for [H][C@@]12CCCO[C@]1([H])[C@H](NC(=O)C1CCC1)CN(Cc1ccoc1)C2 was A: -8.905%; B: 51.5%. For CCS(=O)(=O)c1ncc(CN2CCOCC2)n1CCCc1ccccc1 the result was A: -15.62%; B: -7%.

Cc1nc(Nc2ncccn2)cc(C2CCN(CC(C)C)C2)n1 (stereo not drawn) read A: -7.108%; B: 1.313%. CC(Cn1cncn1)NCc1ccc2nonc2c1 (stereo not drawn) gave B: -12.04%. Cc1cc(C)cc(N(C)S(=O)(=O)c2cc3c(c(C(=O)O)c2)OCCO3)c1 gave A: -37.35%; B: -5.487%. CC(C)CCNC(=O)c1cccnc1Oc1cccnc1 read A: 1.4%; B: -31.36%. For COCCn1c(CN2CCCO2)cnc1S(=O)(=O)CC1CCCCC1 the result was A: 19.4%; B: -13.19%.

O=C(NC1CCCC1)c1cnn2c(-c3ccco3)ccnc12 read A: 36.67%; B: 23.46%. For CCCC(C#N)NC(=O)CCCOc1cccc(F)c1 (stereo not drawn) the result was A: 26.14%; B: -28.43%. Result for Cc1noc(C)c1CN1CCN(C(C)c2nc(C3CC3)no2)CC1 (stereo not drawn) was B: -29.29%. For CC(Cn1ccnc1)NC(=O)C1(c2ccc(F)cc2)CCCC1 (stereo not drawn) the result was B: -21%. CC(O)CN1CCC(CNCc2cccc(Br)c2)CC1 (stereo not drawn) read A: 15.68%; B: 16.78%.

Result for O=C(CCn1nc(C(F)(F)F)c(Cl)c1C1CC1)NN1CCOCC1 was A: 6.641%; B: -20.73%. CNS(=O)(=O)CCCNC(C)(C)c1nc(C)cs1 read B: 0.2052%. With Cc1cn2c(n1)CCC(NC(=O)c1[nH]nc(C)c1Br)C2 (stereo not drawn) the screen gave A: -35.87%; B: -24.51%. For CC(C)c1nc(CN2CCCCC2)cs1 the result was B: 0.8394%. For Cc1nc2n(n1)CC(NCc1nc(-c3cccs3)no1)CC2 (stereo not drawn) the result was A: 31.22%; B: -27.11%.

For reference, 4 entries once more:

| SMILES | A | B |
|---|---|---|
| `Cc1nc2[nH]cnc(NCCCN3CCOCC3)c-2n1` | 20.07 | -13.88 |
| `CCN(C)C[C@@H]1CN(S(=O)(=O)c2ccc(OC)cc2)C[C@@H]1CO` | - | -8.353 |
| `CCC[C@H]1CN(S(C)(=O)=O)C[C@@H]1NC(=O)c1ccc(COC)cc1` | 5.703 | -14.9 |
| `O=C(c1cccc(-n2cnnc2)c1)N1C[C@@H](O)[C@H](N2CCOCC2)C1` | 40.33 | 14.49 |

Source: ChEMBL document CHEMBL3988442, “University of Dundee, Small-Polar-MMV Screening Library” (2021).